Laboratory results reported in paper doi:10.1101/2021.03.09.434627.
Substitutions are numbered along the chain they refer to. Names may count otherwise. Results are given in words; binding and its absence hold for the method and conditions named. Binding seen in cells or lysates may run through a third protein. A result given as binding can be weak or reduced; the word gives no strength. For some assays here: Tags and fused reporters may be left off the sequences shown. Values belong to the molecule of their own block, whether it stands above or below them.

How the values were obtained:
[1] = target: T1, His6-HSCA2-Myc (Arabidopsis) (UniProt Q9LDZ0); assay: pull-down
T1 sequence: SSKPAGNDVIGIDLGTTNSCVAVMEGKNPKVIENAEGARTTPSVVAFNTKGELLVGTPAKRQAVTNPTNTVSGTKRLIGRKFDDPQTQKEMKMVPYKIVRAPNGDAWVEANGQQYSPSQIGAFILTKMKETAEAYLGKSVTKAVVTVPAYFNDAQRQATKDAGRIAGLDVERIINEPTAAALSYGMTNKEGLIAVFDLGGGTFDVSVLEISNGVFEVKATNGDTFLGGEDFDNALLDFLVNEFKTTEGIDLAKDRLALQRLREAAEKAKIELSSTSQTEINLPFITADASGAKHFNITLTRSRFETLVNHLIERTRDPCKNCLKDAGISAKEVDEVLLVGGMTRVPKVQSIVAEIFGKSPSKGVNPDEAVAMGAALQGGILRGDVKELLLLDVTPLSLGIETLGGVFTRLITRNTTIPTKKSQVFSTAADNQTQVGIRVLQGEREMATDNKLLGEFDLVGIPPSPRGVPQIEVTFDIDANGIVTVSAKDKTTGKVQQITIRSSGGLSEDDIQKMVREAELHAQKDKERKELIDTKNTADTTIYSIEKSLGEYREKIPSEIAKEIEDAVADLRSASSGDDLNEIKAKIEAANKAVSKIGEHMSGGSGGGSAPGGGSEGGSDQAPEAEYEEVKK

[2] = target: T2, His6-HSCA2^G87D-Myc (Arabidopsis) (UniProt Q9LDZ0); assay: pull-down
T2 sequence: T1 sequence with G37D

SSR1-cCFP (Arabidopsis) = SSR1-cCFP (Arabidopsis) (UniProt Q9LZL9); assay: split reporter
[3] = target: His6-SSR1-Myc (Arabidopsis); assay: pull-down
SSR1-Flag (Arabidopsis) = assay: co-IP

B3: ISU1 (protein, UniProt O49627 51-167)
chain: PNVGTGLVGAPACGDVMKLQIKVDEKTGQIVDARFKTFGCGSAIASSSVATEWVKGKAMEDVLTIKNTEIAKHLSLPPVKLHCSMLAEDAIKAAVKDYKEKRVKTNGAAAAGETTQA
binding (SSR1-Flag (Arabidopsis)): binds

B4: ISU1^T55M-Myc (protein, UniProt O49627 51-167)
chain: B3 chain with T5M
binding [3]: binds

B5: HSCA2-nVenus (protein, UniProt Q9LDZ0 51-682)
chain: T1 sequence
binding (SSR1-cCFP (Arabidopsis)): binds

B6: HSCA2-Myc (protein, UniProt Q9LDZ0 51-682)
chain: T1 sequence
binding (SSR1-Flag (Arabidopsis)): binds

Other lines, results leading:

binding [1]: binds
binding [2]: binds
Molecule: SSR1-Myc (Arabidopsis)

binding (SSR1-cCFP (Arabidopsis)): binds
B1: ISU1-nVenus (protein, UniProt O49627 51-167)
chain: B3 chain

binding [3]: binds
B2: ISU1-Myc (protein, UniProt O49627 51-167)
chain: B3 chain
